Results reported in US10238747B2 (priority 2010, dated 2019).
At least one peptide structure holds a part that was inferred or is arguable (an end, a ring closure or a residue). No end group written: not given here.

Test system: BALB/c and C57BL6 mice
Conditions: mouse, in vivo

Sequence	immune response determined by antibodies
DGQEEKAGVVSTGLIGGGNDATYQRTRALVRTG [derG-NP]	nonimmunogenic
DGQEEKAGVVSTGLIGGGSLLTEVETPIRNEWGCRCNDSSD (cysteines drawn unpaired) [derG-M2e]	nonimmunogenic
